Values of other authors as cited in patent publication US20230021880A1, “Cladribine regimen for treating progressive forms of Multiple Sclerosis” (Merck Patent GmbH, priority 2017, published 2023).
Like-named read-outs stand apart in the source and are kept apart here. For at least one compound, name, drawing or mass did not settle the structure.

Test system: PPMS patients
Details: cited from earlier work

## CCCCCCCCc1ccc(CCC(N)(CO)CO)cc1 [fingolimod]
INFORMS Study in PPMS
  study outcome: did not reach meaningful clinical endpoints
INFORMS, CDP (3)
  EDSS progression overall HR (95% CI): 0.88
INFORMS, EDSS Composite
  EDSS progression overall HR (95% CI): 0.95
INFORMS, PPMS
  % with CDP study drug, CDP (3): 54.3%
  % with CDP study drug, EDSS Composite: 77.2%
